In the supplement of paper PMC12819154, “High-throughput peptide-centric local stability assay extends protein–ligand identification to membrane proteins, tissues and bacteria” (Nature Structural & Molecular Biology, 2025):
This is one part of the list. Most values lie at the level of the controls, where differences are scatter.

Chains of the proteins cited; added tags and fusions are not shown. Lines headed by an entry give the natural chain unless they say otherwise; changes in a name come on top.
UniProt Q9C0J8: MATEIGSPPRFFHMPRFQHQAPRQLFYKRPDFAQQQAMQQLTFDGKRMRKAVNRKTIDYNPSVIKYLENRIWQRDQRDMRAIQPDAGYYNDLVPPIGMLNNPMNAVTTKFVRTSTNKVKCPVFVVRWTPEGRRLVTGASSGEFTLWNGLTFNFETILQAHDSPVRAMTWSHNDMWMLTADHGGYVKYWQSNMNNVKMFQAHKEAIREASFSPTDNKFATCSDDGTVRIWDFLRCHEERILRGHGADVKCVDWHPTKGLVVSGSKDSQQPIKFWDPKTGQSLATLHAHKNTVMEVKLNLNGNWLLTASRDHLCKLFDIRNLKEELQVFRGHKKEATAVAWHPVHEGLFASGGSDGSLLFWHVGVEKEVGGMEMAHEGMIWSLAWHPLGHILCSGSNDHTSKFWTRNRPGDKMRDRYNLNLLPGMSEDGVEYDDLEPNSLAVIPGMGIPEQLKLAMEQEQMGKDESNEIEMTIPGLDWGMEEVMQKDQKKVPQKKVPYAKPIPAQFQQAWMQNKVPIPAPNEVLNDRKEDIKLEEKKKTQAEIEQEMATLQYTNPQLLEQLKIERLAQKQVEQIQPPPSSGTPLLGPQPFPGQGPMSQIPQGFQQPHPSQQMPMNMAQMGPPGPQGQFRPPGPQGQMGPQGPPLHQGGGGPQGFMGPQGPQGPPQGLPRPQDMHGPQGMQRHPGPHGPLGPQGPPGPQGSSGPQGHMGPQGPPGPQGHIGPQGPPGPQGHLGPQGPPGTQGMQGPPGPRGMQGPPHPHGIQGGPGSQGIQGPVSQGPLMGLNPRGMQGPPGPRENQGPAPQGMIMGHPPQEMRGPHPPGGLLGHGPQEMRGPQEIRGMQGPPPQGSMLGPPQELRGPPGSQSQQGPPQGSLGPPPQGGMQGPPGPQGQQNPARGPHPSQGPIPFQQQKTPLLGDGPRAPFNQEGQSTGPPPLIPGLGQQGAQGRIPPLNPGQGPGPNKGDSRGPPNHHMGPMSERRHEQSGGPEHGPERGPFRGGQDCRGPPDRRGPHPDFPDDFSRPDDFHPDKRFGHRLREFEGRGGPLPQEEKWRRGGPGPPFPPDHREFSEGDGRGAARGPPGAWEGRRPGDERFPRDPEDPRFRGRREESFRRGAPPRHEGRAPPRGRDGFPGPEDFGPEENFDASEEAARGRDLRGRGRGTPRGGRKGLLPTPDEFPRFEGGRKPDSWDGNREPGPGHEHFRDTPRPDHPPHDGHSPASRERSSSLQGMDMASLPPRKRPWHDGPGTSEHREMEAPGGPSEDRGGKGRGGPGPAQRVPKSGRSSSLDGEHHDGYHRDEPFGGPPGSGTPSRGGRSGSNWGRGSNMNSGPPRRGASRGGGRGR
UniProt Q9H2U1: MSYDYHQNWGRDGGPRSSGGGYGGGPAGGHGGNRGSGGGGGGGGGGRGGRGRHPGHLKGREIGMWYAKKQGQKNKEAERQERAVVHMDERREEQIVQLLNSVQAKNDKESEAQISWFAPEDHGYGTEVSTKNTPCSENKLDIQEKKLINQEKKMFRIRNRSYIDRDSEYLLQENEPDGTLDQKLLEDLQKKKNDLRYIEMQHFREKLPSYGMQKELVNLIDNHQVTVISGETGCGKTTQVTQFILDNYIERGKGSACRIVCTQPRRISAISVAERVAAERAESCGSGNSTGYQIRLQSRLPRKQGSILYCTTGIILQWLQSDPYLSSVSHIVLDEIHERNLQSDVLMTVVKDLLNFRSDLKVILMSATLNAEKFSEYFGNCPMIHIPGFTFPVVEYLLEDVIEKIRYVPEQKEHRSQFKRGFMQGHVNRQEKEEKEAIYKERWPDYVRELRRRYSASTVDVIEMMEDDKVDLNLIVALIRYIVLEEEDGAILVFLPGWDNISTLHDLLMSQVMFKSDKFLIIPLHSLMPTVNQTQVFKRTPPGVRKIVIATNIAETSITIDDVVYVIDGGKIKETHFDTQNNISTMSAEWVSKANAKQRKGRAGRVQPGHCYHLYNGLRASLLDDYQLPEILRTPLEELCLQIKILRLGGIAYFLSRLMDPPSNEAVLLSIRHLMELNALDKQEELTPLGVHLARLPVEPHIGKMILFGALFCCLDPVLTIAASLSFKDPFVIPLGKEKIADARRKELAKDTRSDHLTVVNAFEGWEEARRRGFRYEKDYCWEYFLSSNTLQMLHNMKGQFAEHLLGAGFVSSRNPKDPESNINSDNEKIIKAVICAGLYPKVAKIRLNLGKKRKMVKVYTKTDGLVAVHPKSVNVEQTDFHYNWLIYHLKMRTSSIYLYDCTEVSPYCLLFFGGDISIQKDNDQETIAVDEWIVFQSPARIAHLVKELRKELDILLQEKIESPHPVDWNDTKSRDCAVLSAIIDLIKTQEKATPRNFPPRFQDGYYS
UniProt Q9BYE2: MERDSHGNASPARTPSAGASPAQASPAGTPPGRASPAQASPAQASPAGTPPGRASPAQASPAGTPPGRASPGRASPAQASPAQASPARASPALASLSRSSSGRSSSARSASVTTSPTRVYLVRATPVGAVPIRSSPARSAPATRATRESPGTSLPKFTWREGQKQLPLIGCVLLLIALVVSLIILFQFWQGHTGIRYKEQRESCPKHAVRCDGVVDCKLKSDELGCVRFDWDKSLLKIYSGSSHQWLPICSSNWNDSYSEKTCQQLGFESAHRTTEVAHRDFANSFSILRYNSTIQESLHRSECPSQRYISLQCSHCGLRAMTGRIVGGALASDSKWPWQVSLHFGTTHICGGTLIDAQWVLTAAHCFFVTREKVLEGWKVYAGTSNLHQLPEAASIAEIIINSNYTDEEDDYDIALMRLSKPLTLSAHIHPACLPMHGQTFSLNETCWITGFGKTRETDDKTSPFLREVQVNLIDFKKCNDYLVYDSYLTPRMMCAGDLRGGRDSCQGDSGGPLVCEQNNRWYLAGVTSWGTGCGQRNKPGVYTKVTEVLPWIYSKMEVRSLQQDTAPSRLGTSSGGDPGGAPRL
UniProt Q9H469: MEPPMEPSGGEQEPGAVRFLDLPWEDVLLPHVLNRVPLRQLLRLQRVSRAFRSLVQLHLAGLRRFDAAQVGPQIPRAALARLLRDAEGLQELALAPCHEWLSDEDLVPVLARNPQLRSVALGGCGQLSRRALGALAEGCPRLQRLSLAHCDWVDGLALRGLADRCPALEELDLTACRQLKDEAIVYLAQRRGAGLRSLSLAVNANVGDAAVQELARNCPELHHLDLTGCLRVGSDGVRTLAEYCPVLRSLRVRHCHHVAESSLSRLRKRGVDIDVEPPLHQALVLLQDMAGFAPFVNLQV
UniProt Q9GZZ9, whole entry: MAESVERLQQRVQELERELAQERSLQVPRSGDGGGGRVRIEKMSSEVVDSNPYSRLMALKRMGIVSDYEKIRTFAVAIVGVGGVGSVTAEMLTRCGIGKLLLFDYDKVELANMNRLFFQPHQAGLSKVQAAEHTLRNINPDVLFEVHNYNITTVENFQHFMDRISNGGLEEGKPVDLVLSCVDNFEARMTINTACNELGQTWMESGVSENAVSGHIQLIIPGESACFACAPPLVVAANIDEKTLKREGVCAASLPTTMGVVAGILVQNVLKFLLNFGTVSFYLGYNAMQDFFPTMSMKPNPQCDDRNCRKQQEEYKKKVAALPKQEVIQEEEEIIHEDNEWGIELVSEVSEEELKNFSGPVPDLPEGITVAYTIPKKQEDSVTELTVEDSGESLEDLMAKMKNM
UniProt Q9H3J6: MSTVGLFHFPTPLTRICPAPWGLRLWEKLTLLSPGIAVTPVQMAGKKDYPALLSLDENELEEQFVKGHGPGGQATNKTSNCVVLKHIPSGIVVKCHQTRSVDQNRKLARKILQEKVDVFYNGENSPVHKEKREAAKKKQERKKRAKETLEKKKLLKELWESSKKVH
UniProt Q9GZN2: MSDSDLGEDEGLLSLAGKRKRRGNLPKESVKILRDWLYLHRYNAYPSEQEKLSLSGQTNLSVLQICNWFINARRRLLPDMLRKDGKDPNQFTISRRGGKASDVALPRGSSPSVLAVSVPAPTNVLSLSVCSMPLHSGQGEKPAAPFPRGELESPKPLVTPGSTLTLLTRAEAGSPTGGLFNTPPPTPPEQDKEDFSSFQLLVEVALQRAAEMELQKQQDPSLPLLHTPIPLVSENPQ
UniProt Q9BX40: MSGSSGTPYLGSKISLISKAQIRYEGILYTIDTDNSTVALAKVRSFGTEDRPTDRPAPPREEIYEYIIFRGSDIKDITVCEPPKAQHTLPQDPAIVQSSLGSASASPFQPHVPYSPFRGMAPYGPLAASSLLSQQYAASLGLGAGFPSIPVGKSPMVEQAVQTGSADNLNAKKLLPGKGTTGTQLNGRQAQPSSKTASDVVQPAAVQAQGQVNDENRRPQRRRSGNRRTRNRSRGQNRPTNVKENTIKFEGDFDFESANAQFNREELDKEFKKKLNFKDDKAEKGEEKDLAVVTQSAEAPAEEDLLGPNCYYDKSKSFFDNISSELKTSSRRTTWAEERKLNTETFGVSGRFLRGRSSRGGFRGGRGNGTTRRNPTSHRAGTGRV
UniProt Q9BY42: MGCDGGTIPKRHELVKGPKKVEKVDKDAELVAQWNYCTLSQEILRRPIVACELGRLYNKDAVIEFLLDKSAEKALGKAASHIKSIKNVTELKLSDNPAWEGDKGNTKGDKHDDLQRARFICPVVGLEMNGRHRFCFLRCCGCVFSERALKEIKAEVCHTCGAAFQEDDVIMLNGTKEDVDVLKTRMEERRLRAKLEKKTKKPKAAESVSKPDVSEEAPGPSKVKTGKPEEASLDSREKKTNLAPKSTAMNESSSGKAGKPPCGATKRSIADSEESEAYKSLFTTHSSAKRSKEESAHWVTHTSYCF
UniProt Q9GZZ1: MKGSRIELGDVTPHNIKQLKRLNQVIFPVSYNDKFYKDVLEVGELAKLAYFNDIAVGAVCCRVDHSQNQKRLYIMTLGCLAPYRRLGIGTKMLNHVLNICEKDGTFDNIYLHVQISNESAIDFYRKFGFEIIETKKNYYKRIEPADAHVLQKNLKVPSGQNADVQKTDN
UniProt Q9BX95: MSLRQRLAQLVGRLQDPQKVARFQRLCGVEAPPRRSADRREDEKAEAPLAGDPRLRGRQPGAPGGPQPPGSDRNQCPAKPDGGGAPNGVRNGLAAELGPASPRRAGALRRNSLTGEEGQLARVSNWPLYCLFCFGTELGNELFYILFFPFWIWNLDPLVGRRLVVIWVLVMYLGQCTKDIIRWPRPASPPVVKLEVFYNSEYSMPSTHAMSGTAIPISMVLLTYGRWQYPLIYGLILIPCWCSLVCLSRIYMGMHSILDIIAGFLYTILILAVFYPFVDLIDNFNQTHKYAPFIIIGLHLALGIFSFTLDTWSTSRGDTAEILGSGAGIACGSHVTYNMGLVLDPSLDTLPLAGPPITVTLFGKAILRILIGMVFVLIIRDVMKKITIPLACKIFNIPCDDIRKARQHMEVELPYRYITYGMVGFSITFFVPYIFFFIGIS
UniProt Q9H0L4: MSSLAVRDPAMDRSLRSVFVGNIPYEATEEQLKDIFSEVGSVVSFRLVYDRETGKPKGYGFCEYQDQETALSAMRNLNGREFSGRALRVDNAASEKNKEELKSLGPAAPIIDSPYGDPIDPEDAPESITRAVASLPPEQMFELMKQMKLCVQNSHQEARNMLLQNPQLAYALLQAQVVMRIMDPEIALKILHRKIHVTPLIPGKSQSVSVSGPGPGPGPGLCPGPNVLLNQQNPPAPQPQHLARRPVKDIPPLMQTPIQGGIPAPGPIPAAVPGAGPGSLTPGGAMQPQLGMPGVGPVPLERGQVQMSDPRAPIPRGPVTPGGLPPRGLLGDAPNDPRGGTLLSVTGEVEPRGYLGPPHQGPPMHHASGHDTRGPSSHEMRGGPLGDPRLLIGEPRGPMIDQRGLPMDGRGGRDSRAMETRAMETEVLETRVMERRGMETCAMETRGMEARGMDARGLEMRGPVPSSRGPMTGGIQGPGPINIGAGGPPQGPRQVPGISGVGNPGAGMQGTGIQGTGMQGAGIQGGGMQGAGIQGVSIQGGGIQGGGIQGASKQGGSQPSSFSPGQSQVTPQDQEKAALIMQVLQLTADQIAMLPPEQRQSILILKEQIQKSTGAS
UniProt Q9H3R5: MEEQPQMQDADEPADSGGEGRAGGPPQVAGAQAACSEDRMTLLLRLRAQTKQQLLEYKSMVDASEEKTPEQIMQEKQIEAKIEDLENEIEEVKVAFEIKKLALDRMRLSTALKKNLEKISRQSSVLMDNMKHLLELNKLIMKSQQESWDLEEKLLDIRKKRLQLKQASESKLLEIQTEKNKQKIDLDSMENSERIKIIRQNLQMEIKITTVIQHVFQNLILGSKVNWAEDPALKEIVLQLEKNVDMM
UniProt Q9H410: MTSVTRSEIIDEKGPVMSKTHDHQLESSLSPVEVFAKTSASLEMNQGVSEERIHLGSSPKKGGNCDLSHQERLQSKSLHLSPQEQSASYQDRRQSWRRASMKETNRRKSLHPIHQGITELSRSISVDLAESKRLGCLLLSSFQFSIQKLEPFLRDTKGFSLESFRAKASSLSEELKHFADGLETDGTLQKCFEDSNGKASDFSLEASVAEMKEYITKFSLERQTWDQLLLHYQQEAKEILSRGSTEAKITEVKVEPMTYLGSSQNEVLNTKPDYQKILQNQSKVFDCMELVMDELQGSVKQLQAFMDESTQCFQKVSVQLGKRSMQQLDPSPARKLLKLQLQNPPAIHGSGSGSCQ

Compound: CN[C@@H]1C[C@H]2O[C@@](C)([C@@H]1OC)n1c3ccccc3c3c4c(c5c6ccccc6n2c5c31)C(=O)NC4 [staurosporine]
Assay: log2 fold change of tryptic peptide abundance, ligand vs vehicle (limited proteolysis) (log2 ratio); higher = more trypsin-susceptible (destabilized)
Conditions: ligand concentration: 20 uM; sample: K562 cleared lysate; digestion: 4 min, 22 C (HT-PELSA RT4min, Orbitrap Astral)

Target	log2 fold change
WDR33 (peptide sequence: EMEAPGGPSEDRGGK, peptide start residue: 1246) (UniProt Q9C0J8)	-0.193
DHX36 (peptide sequence: AVVHMDER, peptide start residue: 83) (UniProt Q9H2U1)	-0.31
POLR2J3 (peptide sequence: VPHPLEHK, peptide start residue: 63) (UniProt Q9H1A7)	0.729
SLC12A5 (peptide sequence: HLPGEDVK, peptide start residue: 33) (UniProt Q9H2X9)	0.11
TNKS1BP1 (peptide sequence: KEVLASPDRLWGSR, peptide start residue: 173) (UniProt Q9C0C2)	-0.285
NSD3 (peptide sequence: FQVGDLVWSK, peptide start residue: 268) (UniProt Q9BZ95)	0.3
UniProt Q9BYE2 (peptide sequence: NKPGVYTK, peptide start residue: 224)	0.0365
FBXL15 (peptide sequence: SLVQLHLAGLRR, peptide start residue: 53) (UniProt Q9H469)	0.437
MED28 (peptide sequence: TGVDQCIQK, peptide start residue: 75) (UniProt Q9H204)	-0.0649
UBA5 (peptide sequence: KQQEEYK, peptide start residue: 310) (UniProt Q9GZZ9)	1.08
C11orf54 (peptide sequence: HYGNKPIGMGGTFIIQK, peptide start residue: 195) (UniProt Q9H0W9)	0.317
C12orf65 (peptide sequence: VDVFYNGENSPVHK, peptide start residue: 116) (UniProt Q9H3J6)	-0.3
TSPYL1 (peptide sequence: AFQQLEHK, peptide start residue: 249) (UniProt Q9H0U9)	0.346
UniProt Q9GZN2 (peptide sequence: DGKDPNQFTISR, peptide start residue: 230)	-0.181
RACGAP1 (peptide sequence: QGNFFASPMLK, peptide start residue: 622) (UniProt Q9H0H5)	0.095
LSM14B (peptide sequence: KLNFKDDK, peptide start residue: 274) (UniProt Q9BX40)	0.597
UniProt Q9BY42 (peptide sequence: PPCGATKR, peptide start residue: 260)	-0.824
UniProt Q9GZZ1 (peptide sequence: RIEPADAHVLQK, peptide start residue: 141)	-0.198
CDCA4 (peptide sequence: SVLIANTVR, peptide start residue: 59) (UniProt Q9BXL8)	0.189
UniProt Q9BWW4 (peptide sequence: QQGHPNMGGSMQR, peptide start residue: 190)	0.131
ITPA (peptide sequence: KLEEVVQILGDKFPCTLVAQK, peptide start residue: 19) (UniProt Q9BY32)	0.309
SGPP1 (peptide sequence: NGLAAELGPASPR, peptide start residue: 91) (UniProt Q9BX95)	-0.131
RBM38 (peptide sequence: IFVGGLPYHTTDASLRK, peptide start residue: 36) (UniProt Q9H0Z9)	-0.846
CSTF2T (peptide sequence: GGTLLSVTGEVEPR, peptide start residue: 339) (UniProt Q9H0L4)	-0.265
UniProt Q9C029 (peptide sequence: QLAAVATLLR, peptide start residue: 95)	0.318
CENPH (peptide sequence: IEDLENEIEEVKVAFEIKK, peptide start residue: 82) (UniProt Q9H3R5)	0.365
BOLA2 (peptide sequence: VLVVSAKFEGKPLLQR, peptide start residue: 37) (UniProt Q9H3K6)	-0.156
DSN1 (peptide sequence: SMQQLDPSPARK, peptide start residue: 324) (UniProt Q9H410)	0.442

Quoted at random: 2 entries already listed
Target	log2 fold change
LSM14B (peptide sequence: KLNFKDDK, peptide start residue: 274) (UniProt Q9BX40)	0.597
SLC12A5 (peptide sequence: HLPGEDVK, peptide start residue: 33) (UniProt Q9H2X9)	0.11
